# Source: patent US20230233589A1, “METHODS FOR TREATING CANCER USING A MODIFIED MONOSACCHARIDE COMPOUND” (THERAONCO, priority 2020, published 2023)
# For at least one compound, name, drawing or mass did not settle the structure.
# What was measured:
# Hela tumor = Hela tumor bearing mice, tumor volume follow-up; type: in vivo, NMRI nude mice; conditions: vs non-treated control
# Cal33 tumor = Cal33 tumor bearing mice, tumor volume follow-up; type: in vivo, NMRI nude mice; conditions: vs non-treated control
# Panc 1 tumor = test: Panc-1 tumor bearing mice, tumor volume follow-up; type: in vivo, NMRI nude mice; conditions: vs non-treated control
# tumoral eukaryotic cells = test: Assimilation by eukaryotic cells, tumoral versus non-tumoral; type: cell-based; conditions: bladder, blood, skin, pancreas, brain, liver, kidney, lung, muscle, lymphocyte, prostate, stomach, breast cancer compared to non-cancer cells
# [1] = i.v., cumulative dose 20 mg (5 mg/mouse/inj, 4 times over 8 days)
smiles,measurement,setting,value
"[N-]=[N+]=NC[C@H]1OC(O)[C@@H](O)[C@@H]1O (stereo partly drawn) [Ara-N3, 5-azido-5-deoxy-D-arabinofuranose]",tumor growth,Hela tumor; [1],induced slower tumor growth
same,tumor doubling time,"Hela tumor; i.v., cumulative dose 20 mg",increased the doubling times
same,tumor volume,"Hela tumor; oral (drinking water), cumulative dose 200 mg per mouse over 8 days",reduced tumor volumes
same,tumor growth,Cal33 tumor; [1],induced slower tumor growth
same,tumor doubling time,"Cal33 tumor; i.v., cumulative dose 20 mg",increased the doubling times
same,tumor volume,"Cal33 tumor; oral (drinking water), cumulative dose 400 mg per mouse over 8 days",reduced tumor volumes
same,tumor growth,"Panc 1 tumor; i.v., cumulative dose 100 mg (9 mg/mouse/injection, 11 times over 21 days)",induced slower tumor growth
same,tumor doubling time,"Panc 1 tumor; i.v., cumulative dose 100 mg",increased the doubling times
same,tumor volume,"Panc 1 tumor; oral (drinking water), cumulative dose 200 mg per mouse over 21 days",reduced tumor volumes
same,assimilation in tumoral versus non-tumoral eukaryotic cells,tumoral eukaryotic cells,more important in tumoral eukaryotic cells compared to non-tumoral cells
